Results reported in article PMC7819943, “Rice protein-binding microarrays: a tool to detect cis-acting elements near promoter regions in rice”.
The list shows a part of the results.

Biological target: T1, OsSMF1 (Oryza sativa, UniProt Q6ZLB0 1-436)
T1 sequence: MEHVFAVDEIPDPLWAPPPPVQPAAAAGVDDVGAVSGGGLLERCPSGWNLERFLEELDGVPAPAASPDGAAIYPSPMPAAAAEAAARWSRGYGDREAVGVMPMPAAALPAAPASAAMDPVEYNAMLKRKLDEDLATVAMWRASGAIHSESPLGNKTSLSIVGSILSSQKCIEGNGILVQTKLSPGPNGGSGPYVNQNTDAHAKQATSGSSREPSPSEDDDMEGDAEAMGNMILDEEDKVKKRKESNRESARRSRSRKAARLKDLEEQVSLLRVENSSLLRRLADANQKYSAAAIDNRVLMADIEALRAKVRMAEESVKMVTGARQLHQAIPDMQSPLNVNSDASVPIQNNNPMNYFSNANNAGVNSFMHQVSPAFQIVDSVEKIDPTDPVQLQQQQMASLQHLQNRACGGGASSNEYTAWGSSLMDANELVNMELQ
Experiment: protein-binding microarray (RPBM); PBS, 2% BSA, 51.3 ng/ul salmon testes DNA, 50 uM zinc acetate, 200 nM TF, 25 C, 1 h; high values mean tight binding
Details: protein: recombinant; tags: N-terminal polyhistidine and DsRed monomer fusion (pET32a); chain copies: 2; label: CyDye5-dUTP incorporated in the synthesized complementary strand; 3' TTTTT single-stranded linker to array surface; dsDNA, one strand shown
Method in brief: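 Transcription factors were made in E. coli BL21-CodonPlus as N-terminal fusions to a polyhistidine tag and DsRed, then purified on Ni–NTA. After primer extension with Cy5-dUTP and blocking with 2% BSA, a custom Agilent array was exposed for 1 h at 25 °C to 200 nM protein in PBS, 2% BSA, salmon testes DNA and 50 µM zinc acetate. Washed arrays were scanned on an Axon 4000B, and the binding signal is per-feature fluorescence intensity in arbitrary units.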

Sequence	binding signal
AGCAAACGGCCGTCTGCCACGTCACATTCGCCGCCCTCTGCGGAGTCACCTAGTGCAG	33700 fluorescence intensity (a.u.)
GTTCGTTTTGATGTGTCAATGGATTGGTGGACCCGTGGATCGGAGTCACCTAGTGCAG	4640 fluorescence intensity (a.u.)
GTGGAAGGAAGGCTCTCGAGTCTGGAAGCCGCATCGCGCTCGGAGTCACCTAGTGCAG	3330 fluorescence intensity (a.u.)
TTTTCCGCCTCGTCTTTTCGCTTATGCTTATATTTATCAGCGGAGTCACCTAGTGCAG	3310 fluorescence intensity (a.u.)
CACACCAACGTTTTCTTTGTGCAGACACATTCTTACATGTCGGAGTCACCTAGTGCAG	3360 fluorescence intensity (a.u.)
CGCCGAGGGGAGGGGAGGGGAGGTTGCCATTGTTGTCCATCGGAGTCACCTAGTGCAG	5320 fluorescence intensity (a.u.)
CACGCGTCAAACACCGGTTCCACGTGAGGAAGCTGAGCTCCGGAGTCACCTAGTGCAG	5240 fluorescence intensity (a.u.)
ATGAACAATGACAGATTATGATTTATGCAACGAAAACCTGCGGAGTCACCTAGTGCAG	3210 fluorescence intensity (a.u.)
AATGATCAATATTGGCACGATGACTGTGTTTATTTCCTTTCGGAGTCACCTAGTGCAG	6240 fluorescence intensity (a.u.)
CCCTGCTGGCTGTGCAGACAACGCAAGCGTGGCACATGTGCGGAGTCACCTAGTGCAG	3920 fluorescence intensity (a.u.)
TCACCAAATAGTTCTGACACGTGGCGCACTAGTTATTGTACGGAGTCACCTAGTGCAG	10200 fluorescence intensity (a.u.)
CCACGTGTAATTACCGATCTGCCCCTCCCAGCCCACGTCACGGAGTCACCTAGTGCAG	9660 fluorescence intensity (a.u.)
ACCTGTGGACTTGCACGGTAACGTAGCACAATCTTCAAAGCGGAGTCACCTAGTGCAG	3810 fluorescence intensity (a.u.)
TGCCATCCACGAGTCGCACACTCGTAAGCCACGTCGCCACCGGAGTCACCTAGTGCAG	8550 fluorescence intensity (a.u.)
CCTTCCCTAGGGGCGGAGCCACGTAGCTTGGGCCCCACACCGGAGTCACCTAGTGCAG	6430 fluorescence intensity (a.u.)
CGTCTATCCCCACAGCCACACAACGTGTCCTCAAATTCCGCGGAGTCACCTAGTGCAG	3720 fluorescence intensity (a.u.)
CGGACTGAGCTGCCTCGCCCGCCTCCGAGCAGTTGGGGAACGGAGTCACCTAGTGCAG	40900 fluorescence intensity (a.u.)
TAGCATAGCCTAATCACCGTCTCCTTCATCTCTAATCACGCGGAGTCACCTAGTGCAG	4220 fluorescence intensity (a.u.)
CGTCACCTCCACCGCCGCCTTGCTCCCTGAGCCGACGCCACGGAGTCACCTAGTGCAG	3550 fluorescence intensity (a.u.)
AATCAAGGAAGCGGAGGCAGCAAGACCGCGACGAAATCCGCGGAGTCACCTAGTGCAG	13500 fluorescence intensity (a.u.)
CTACATACAATATTTAAAACTTGATGCAATCCACGGAACACGGAGTCACCTAGTGCAG	18700 fluorescence intensity (a.u.)
TACTCGTATCCATCGATCGGAAGAATCCCAGTCGCCGGCGCGGAGTCACCTAGTGCAG	3230 fluorescence intensity (a.u.)
GCAACCTCTACCTCAATGTGTCGTGTCACACCGGAGCTCTCGGAGTCACCTAGTGCAG	7200 fluorescence intensity (a.u.)
GTGTTGAGATGATGACAGCACTTATGTACTCTTCTAAAGTCGGAGTCACCTAGTGCAG	3260 fluorescence intensity (a.u.)
CGGTGGTAGGCGCGTACGTGTCCCTGTGCAGCGCACCGCGCGGAGTCACCTAGTGCAG	5440 fluorescence intensity (a.u.)
TGCATGCATTATGACTTTTGACTTGTGACACATAGTCACACGGAGTCACCTAGTGCAG	3760 fluorescence intensity (a.u.)
GCAGAATACAAAATATCCACACTTCCACGTTGCCACAGAGCGGAGTCACCTAGTGCAG	4090 fluorescence intensity (a.u.)

2 entries drawn at random from those above:
Sequence	binding signal
CCTTCCCTAGGGGCGGAGCCACGTAGCTTGGGCCCCACACCGGAGTCACCTAGTGCAG	6430 fluorescence intensity (a.u.)
CGCCGAGGGGAGGGGAGGGGAGGTTGCCATTGTTGTCCATCGGAGTCACCTAGTGCAG	5320 fluorescence intensity (a.u.)

Additional records:

Sequence	binding signal
TGGGTTTCCGTGTCCAACGTTTGACTGTCCGTCTTATATGCGGAGTCACCTAGTGCAG	3250 fluorescence intensity (a.u.)
AGACACCATCGCTCCACCGCTAGATTCAAGCGTCTTCAAGCGGAGTCACCTAGTGCAG	3150 fluorescence intensity (a.u.)
CAAGCGCCGACCCTGGTGGCCCGCCCACCTCCTCCCCGACCGGAGTCACCTAGTGCAG	3360 fluorescence intensity (a.u.)
GTTTATATGTCAGTTGCTAAGGATATACAACAGGATGATGCGGAGTCACCTAGTGCAG	12300 fluorescence intensity (a.u.)
GCATAAATGATGTGTTTCTGAATCCAATTACACACATGATCGGAGTCACCTAGTGCAG	5020 fluorescence intensity (a.u.)
TCATAAAGGAAGAGGAATCTACATATCACTAGCTGCAAATCGGAGTCACCTAGTGCAG	4010 fluorescence intensity (a.u.)
TGTGTGCTGCTGCGTCATCCCATACGCCTCTGCCCGGTGGCGGAGTCACCTAGTGCAG	15500 fluorescence intensity (a.u.)
TCCTCATAGCTGACCAAATCTCTGCTGTGACAGCAATCTCCGGAGTCACCTAGTGCAG	4150 fluorescence intensity (a.u.)
CCAGATATCTTTTACTAAAGGATGGAAATGAGGCGTAATTCGGAGTCACCTAGTGCAG	29100 fluorescence intensity (a.u.)
ATTTCCACCTGCTCATCTATATCTATCTATCATCAAGCTGCGGAGTCACCTAGTGCAG	4010 fluorescence intensity (a.u.)
GAAACAACTCAACCGCAGCAGTTGTCTCGTCTCGTCAGTTCGGAGTCACCTAGTGCAG	3850 fluorescence intensity (a.u.)
ATCACGCCAGTCACCACGCTTGGCATATGCTGGTAAATATCGGAGTCACCTAGTGCAG	30400 fluorescence intensity (a.u.)
CCTTCGCTCGCCACGTGGCAGCCGCTAGTCCTTATCGCCGCGGAGTCACCTAGTGCAG	37400 fluorescence intensity (a.u.)
GGAGCGGCGGCTGCCGTTCTGCGTGCTGAGCGACCGGAGGCGGAGTCACCTAGTGCAG	5460 fluorescence intensity (a.u.)
AACAAGATTCGGCCCGCAGGCCACATGCCACGTGCTGCATCGGAGTCACCTAGTGCAG	8640 fluorescence intensity (a.u.)
CATTCACAACAAGCTCTAGTGATGATAGATGGACATACTGCGGAGTCACCTAGTGCAG	4190 fluorescence intensity (a.u.)
GTTGGTGGTGGTGGTGGTAGCTTTGGGGCGTTTGGCTCGGCGGAGTCACCTAGTGCAG	3670 fluorescence intensity (a.u.)
GATTAATTGATTTATTTCTTTCTGCTTTACCCGGTCGCCACGGAGTCACCTAGTGCAG	19200 fluorescence intensity (a.u.)
TCTTGGACTAATTCGCGAGATGAATCTTTTGAGTCTAATTCGGAGTCACCTAGTGCAG	19600 fluorescence intensity (a.u.)
GTCATATTAGTAATGTGCATCATTCATGTCATAATAATCACGGAGTCACCTAGTGCAG	3250 fluorescence intensity (a.u.)
ACAGTACTTGGCTGTAGCGGGCATCTTGTCCTGGCATGTGCGGAGTCACCTAGTGCAG	3600 fluorescence intensity (a.u.)
CAGATGCTTCGCCGCGCGTGCACACGTGTCGTCGTCGGCGCGGAGTCACCTAGTGCAG	16400 fluorescence intensity (a.u.)
TCGCCGGCGCCAAGTTCGTCGTCACCTCCAATCTCATGCTCGGAGTCACCTAGTGCAG	4960 fluorescence intensity (a.u.)
ATGTCAAGACAACAACAGTTGTAAATGTGATCTGGACATACGGAGTCACCTAGTGCAG	3540 fluorescence intensity (a.u.)
TTTACATGTGTAGATCTAATGATGTGTTAATGCTAGTATACGGAGTCACCTAGTGCAG	4500 fluorescence intensity (a.u.)
TTTATTACGTGAGTAAAATTTTAACTACGTGTACATATAGCGGAGTCACCTAGTGCAG	4180 fluorescence intensity (a.u.)
TATCTGTCCTCTTCGTCATATATAACTCTCTTGACGAACTCGGAGTCACCTAGTGCAG	3210 fluorescence intensity (a.u.)
